No constants are given. Whether binding was seen depends on the method and setting. In cells and extracts the contact can be indirect. Some entries that bind do so weakly or less than the wild type. Tags and fused reporters may be left off the sequences shown.
Tests used:
Assay in all cases: co-IP
[1] = target: T1, Ldb16 (1-133)-FLAG, genomically expressed (S. cerevisiae) (UniProt P25587)
T1 sequence: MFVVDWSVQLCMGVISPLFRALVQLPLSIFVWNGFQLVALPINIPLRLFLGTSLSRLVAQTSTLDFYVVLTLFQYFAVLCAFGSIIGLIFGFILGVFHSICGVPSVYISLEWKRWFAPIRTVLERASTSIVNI

[2] = target: T2, Ldb16-FLAG, wild type, genomically expressed (S. cerevisiae) (UniProt P25587)
T2 sequence: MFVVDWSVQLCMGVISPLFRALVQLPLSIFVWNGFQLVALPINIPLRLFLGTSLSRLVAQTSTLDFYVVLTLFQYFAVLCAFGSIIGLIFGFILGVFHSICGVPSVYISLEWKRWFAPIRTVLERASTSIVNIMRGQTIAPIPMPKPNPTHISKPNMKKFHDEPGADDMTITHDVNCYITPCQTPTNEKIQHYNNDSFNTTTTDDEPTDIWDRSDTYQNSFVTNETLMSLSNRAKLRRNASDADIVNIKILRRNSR

[3] = target: T3, Ldb16-3xFLAG, wild type, plasmid-borne (S. cerevisiae) (UniProt P25587)
T3 sequence: T2 sequence

Measured: binding

B1: Ldo45-HA, endogenously tagged (protein, UniProt P40218 1-412)
chain: MAARNRRKNNKKKSLLVTSAAQEKNATYVLVAEELHKKTIDLNMGTETPLTENHENPIPAKEFKHQQKLEPIDEHDDGEDELSIKFKSMTKSSGPITEAEVQKLLLSYAFTSAAIQEDENEKESRHYPIKPPSPSASSLSAYFQSFVEKCKQVFYNFSLQTVEKLNALQNSLYEVFWIIFIYLNYWFPNVGDYVSNTFGQQDSIIIRISLSKSHFRALREKSSQKVQQAVKNIYFCFQEKPYLTAFKVSFAIGLVIPCSLLFLIMVSTATFFFFVYLTLFVVIGFFSSLFIIPLLGISFVFAIGVVSFGFCSNMSFKMAQLIYVRADAFLKKVLDKMALQTQPAQLQEPQEPLSTLRPVSNPTIPSPLRQTARPSKFVTEEDVIFEPVSAQSAIARSLETTANKAGNKFQLS
binds: all assays above

B2: Ldo16-HA, endogenously tagged (protein, UniProt P40219 1-148)
chain: MVSTATFFFFVYLTLFVVIGFFSSLFIIPLLGISFVFAIGVVSFGFCSNMSFKMAQLIYVRADAFLKKVLDKMALQTQPAQLQEPQEPLSTLRPVSNPTIPSPLRQTARPSKFVTEEDVIFEPVSAQSAIARSLETTANKAGNKFQLS
binds: all assays above
